PubChem BioAssay AID1224830 | NIAID – 2016
The deposit covers about 18,000 reagents; below is a random part of them. Over the whole deposit, about 2,900 (16%) are marked active. 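Calls are made per well; low scores hint the gene aids the LPS response, high scores that it dampens it.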 Repeated entries: four replicate wells of each siRNA pool.

Screen: 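Host factors that control LPS-induced TNF expression in human macrophages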 (primary screen)
System: human THP-1 monocytic leukaemia cells, TNF dual-luciferase reporter clone, PMA-differentiated to macrophage-like cells
Knock-down reagent: siRNA pool against human genes, 50 nM
Duration: LPS for 4 h, given about 3 days after siRNA transfection
Conditions: bacterial LPS (TLR4 ligand), 10 ng/ml
Measured: 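Ratio of firefly to renilla light, scaled to the plate median and expressed as a robust z-score per replicate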
Direction: TNF reporter robust z-score: higher = stronger TNF reporter response to LPS
Hit rule: 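Each well counts as active if its z-score is over 2.8 or under -1.5; controls are left without a call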

target gene	TNF reporter robust z-score	outcome
ERP27 (endoplasmic reticulum protein 27)	1.22	inactive
ERP27 (endoplasmic reticulum protein 27)	1.81	inactive
ERP27 (endoplasmic reticulum protein 27)	2.64	inactive
ERP27 (endoplasmic reticulum protein 27)	2.27	inactive
DOP1B (DOP1 leucine zipper like protein B)	0.06	inactive
DOP1B (DOP1 leucine zipper like protein B)	1.67	inactive
DOP1B (DOP1 leucine zipper like protein B)	0.23	inactive
DOP1B (DOP1 leucine zipper like protein B)	1.9	inactive
SNAP91 (synaptosome associated protein 91)	2.8	active
SNAP91 (synaptosome associated protein 91)	0.37	inactive
SNAP91 (synaptosome associated protein 91)	-0.61	inactive
SNAP91 (synaptosome associated protein 91)	-0.38	inactive
IAPP (islet amyloid polypeptide)	2.86	active
IAPP (islet amyloid polypeptide)	-0.41	inactive
IAPP (islet amyloid polypeptide)	-0.4	inactive
IAPP (islet amyloid polypeptide)	-1.24	inactive
GABRA3 (gamma-aminobutyric acid type A receptor subunit alpha3)	0.58	inactive
GABRA3 (gamma-aminobutyric acid type A receptor subunit alpha3)	1.05	inactive
GABRA3 (gamma-aminobutyric acid type A receptor subunit alpha3)	-1.13	inactive
GABRA3 (gamma-aminobutyric acid type A receptor subunit alpha3)	0.03	inactive
GGH (gamma-glutamyl hydrolase)	1.74	inactive
GGH (gamma-glutamyl hydrolase)	0.29	inactive
GGH (gamma-glutamyl hydrolase)	1.79	inactive
GGH (gamma-glutamyl hydrolase)	-1.06	inactive
FBXO2 (F-box protein 2)	1.82	inactive
FBXO2 (F-box protein 2)	2.86	active
FBXO2 (F-box protein 2)	2.97	active
FBXO2 (F-box protein 2)	5.7	active
KCNA4 (potassium voltage-gated channel subfamily A member 4)	-0.22	inactive
KCNA4 (potassium voltage-gated channel subfamily A member 4)	0.75	inactive
KCNA4 (potassium voltage-gated channel subfamily A member 4)	7.92	active
KCNA4 (potassium voltage-gated channel subfamily A member 4)	1.78	inactive
GLB1L3 (galactosidase beta 1 like 3)	0.47	inactive
GLB1L3 (galactosidase beta 1 like 3)	-0.07	inactive
GLB1L3 (galactosidase beta 1 like 3)	0.09	inactive
GLB1L3 (galactosidase beta 1 like 3)	0.25	inactive
SLC19A1	-0.04	inactive
SLC19A1	0.21	inactive
SLC19A1	0.9	inactive
ZNF37A (zinc finger protein 37A)	0.34	inactive
ZNF37A (zinc finger protein 37A)	1.02	inactive
ZNF37A (zinc finger protein 37A)	0.84	inactive
ZNF37A (zinc finger protein 37A)	0.09	inactive
PROSER2 (proline and serine rich 2)	-1.05	inactive
PROSER2 (proline and serine rich 2)	-0.51	inactive
PROSER2 (proline and serine rich 2)	-1.14	inactive
ZBTB10 (zinc finger and BTB domain containing 10)	-0.04	inactive
ZBTB10 (zinc finger and BTB domain containing 10)	-0.6	inactive
ZBTB10 (zinc finger and BTB domain containing 10)	-0.52	inactive
ZBTB10 (zinc finger and BTB domain containing 10)	-0.47	inactive
TAFA1 (TAFA chemokine like family member 1)	-0.16	inactive
TAFA1 (TAFA chemokine like family member 1)	-0.88	inactive
TAFA1 (TAFA chemokine like family member 1)	-0.59	inactive
TAFA1 (TAFA chemokine like family member 1)	0.15	inactive
SFRP1 (secreted frizzled related protein 1)	-0.38	inactive
SFRP1 (secreted frizzled related protein 1)	-0.53	inactive
SFRP1 (secreted frizzled related protein 1)	-0.39	inactive
SFRP1 (secreted frizzled related protein 1)	-0.22	inactive
TNNI3 (troponin I3, cardiac type)	-0.8	inactive
TNNI3 (troponin I3, cardiac type)	0.01	inactive
TNNI3 (troponin I3, cardiac type)	-0.53	inactive
TNNI3 (troponin I3, cardiac type)	0.37	inactive
FAM171B (family with sequence similarity 171 member B)	-0.61	inactive
FAM171B (family with sequence similarity 171 member B)	-0.62	inactive
FAM171B (family with sequence similarity 171 member B)	-0.25	inactive
FAM171B (family with sequence similarity 171 member B)	3.22	active
SLC12A9	-0.07	inactive
SLC12A9	0.85	inactive
SLC12A9	0.33	inactive
SLC12A9	0.27	inactive
SLC39A11	-0.21	inactive
SLC39A11	0.07	inactive
SLC39A11	-0.43	inactive
SLC39A11	0.17	inactive
TPP1 (tripeptidyl peptidase 1)	0.93	inactive
TPP1 (tripeptidyl peptidase 1)	2.5	inactive
TPP1 (tripeptidyl peptidase 1)	0.18	inactive
TPP1 (tripeptidyl peptidase 1)	-0.22	inactive
MAPK1 (mitogen-activated protein kinase 1)	-0.32	inactive
MAPK1 (mitogen-activated protein kinase 1)	0.11	inactive
MAPK1 (mitogen-activated protein kinase 1)	0.13	inactive
MAPK1 (mitogen-activated protein kinase 1)	-0.58	inactive
RPL36AL (ribosomal protein L36a like)	-1.34	inactive
RPL36AL (ribosomal protein L36a like)	-1.18	inactive
RPL36AL (ribosomal protein L36a like)	-1.22	inactive
RPL36AL (ribosomal protein L36a like)	-1.32	inactive
RABEP2 (rabaptin, RAB GTPase binding effector protein 2)	0.34	inactive
RABEP2 (rabaptin, RAB GTPase binding effector protein 2)	0.06	inactive
RABEP2 (rabaptin, RAB GTPase binding effector protein 2)	0.37	inactive
RABEP2 (rabaptin, RAB GTPase binding effector protein 2)	1.16	inactive
PI16 (peptidase inhibitor 16)	-0.65	inactive
PI16 (peptidase inhibitor 16)	-0.95	inactive
PI16 (peptidase inhibitor 16)	-1.47	inactive
PI16 (peptidase inhibitor 16)	0.21	inactive
DPY19L2 (dpy-19 like 2)	-0.08	inactive
DPY19L2 (dpy-19 like 2)	0.34	inactive
DPY19L2 (dpy-19 like 2)	-0.1	inactive
DPY19L2 (dpy-19 like 2)	-1.21	inactive
STOML1 (stomatin like 1)	-0.91	inactive
STOML1 (stomatin like 1)	-1.15	inactive
STOML1 (stomatin like 1)	-1	inactive
STOML1 (stomatin like 1)	-0.81	inactive
PPP2CA (protein phosphatase 2 catalytic subunit alpha)	1.66	inactive
PPP2CA (protein phosphatase 2 catalytic subunit alpha)	-0.12	inactive
PPP2CA (protein phosphatase 2 catalytic subunit alpha)	0.76	inactive
PPP2CA (protein phosphatase 2 catalytic subunit alpha)	1	inactive
BCL2A1 (BCL2 related protein A1)	0.16	inactive
BCL2A1 (BCL2 related protein A1)	0.08	inactive
BCL2A1 (BCL2 related protein A1)	-0.5	inactive
BCL2A1 (BCL2 related protein A1)	0.35	inactive
